# Results taken from PubChem BioAssay AID248 (DTP/NCI, 2004).
# The list is a part of this screen's results and no random one: it is rich in T/C values a quarter to a half above the control, in often repeated tests (any T/C) and in doses without a T/C. Other doses and runs of a compound stand elsewhere. T/C: endpoint of the treated group in % of that of the vehicle group. Some doses have a count of surviving animals in place of a T/C: the source holds a T/C of zero for them, seemingly a mark for toxic or unscored doses. Some survivor counts are full or nearly so, which does not show that the dose was tolerated: survival well below the control is almost never listed, so the zero probably covers shortened survival too. Survivors were counted at the toxicity check, usually on the fifth day, unless a day is given; later deaths do not show. Schedule codes are those of the source, read here as Q, the interval in days (D) or hours (H), X, the number of doses. Some entries were tested several times; the results are listed from low to high. Some schedule codes hold Z or #, which are not explained here. For survival time, this PubChem deposit counts one and a half times the control or more as active, and values a quarter to a half above the control carry no call in these data; other NCI protocols may use other cut-offs. Some T/C values carry the count of animals alive at the toxicity check (mostly the fifth day); without a count, all were alive then.
# System: L1210 leukemia ip in BDF1 mice, survival T/C
# Test: NCI In Vivo Anticancer Drug Screen. Data for tumor model L1210 Leukemia (intraperitoneal) in B6D2F1 (BDF1) mice
# Conditions: higher T/C = longer survival
compound,measurement,setting,value
N[C@@H](Cc1ccc(N(CCCl)CCCl)cc1)C(=O)O,T/C,"T/C endpoint: mean survival time, dose: 10.0 mg/kg/injection, schedule: Q01DX001 (ip), vehicle: saline, evaluated on day 45",253 % of control
same,T/C,"T/C endpoint: mean survival time, dose: 10.0 mg/kg/injection, schedule: Q01DX001 (ip), vehicle: saline, evaluated on day 60","136 [7 of 8 alive], 256, 257, 478 % of control"
same,T/C,"T/C endpoint: mean survival time, dose: 10.0 mg/kg/injection, schedule: Q04DX003 (ip), vehicle: saline",127 and 134 % of control
same,T/C,"T/C endpoint: mean survival time, dose: 12.5 mg/kg/injection, schedule: Q01DX001 (ip), vehicle: saline",131 and 133 % of control
same,T/C,"T/C endpoint: mean survival time, dose: 14.0 mg/kg/injection, schedule: Q04DX002 (ip), vehicle: Klucel (hydroxypropylcellulose) (HPC)","128, 177, 208, 247 % of control"
same,survivor count,"T/C endpoint: mean survival time, dose: 15.0 mg/kg/injection, schedule: Q01DX009 (ip), vehicle: saline",5 of 6 and 6 of 6
same,T/C,"T/C endpoint: mean survival time, dose: 16.0 mg/kg/injection, schedule: Q01DX001 (ip), vehicle: saline",129 % of control [9 of 10 alive]
same,T/C,"T/C endpoint: mean survival time, dose: 16.0 mg/kg/injection, schedule: Q01DX001 (sc), vehicle: saline",136 % of control
same,survivor count,"T/C endpoint: mean survival time, dose: 16.0 mg/kg/injection, schedule: Q01DX009 (ip), vehicle: saline",9 of 10 and 10 of 10
same,survivor count,"T/C endpoint: mean survival time, dose: 16.0 mg/kg/injection, schedule: Q01DX009 (oral), vehicle: saline",9 of 10
same,survivor count,"T/C endpoint: mean survival time, dose: 16.0 mg/kg/injection, schedule: Q01DX009 (sc), vehicle: saline",10 of 10
same,T/C,"T/C endpoint: mean survival time, dose: 16.0 mg/kg/injection, schedule: Q04DX003 (ip), vehicle: saline",136 % of control
same,survivor count,"T/C endpoint: mean survival time, dose: 16.7 mg/kg/injection, schedule: Q01DX001 (ip), vehicle: saline",5 of 8
same,survivor count,"T/C endpoint: mean survival time, dose: 25.0 mg/kg/injection, schedule: Q01DX001 (ip), vehicle: carboxymethylcellulose (CMC)",3 of 6
same,survivor count,"T/C endpoint: mean survival time, dose: 25.0 mg/kg/injection, schedule: Q01DX Z (ip), vehicle: carboxymethylcellulose (CMC)",8 of 10 and 10 of 10
same,survivor count,"T/C endpoint: mean survival time, dose: 28.0 mg/kg/injection, schedule: Q04DX002 (ip), vehicle: Klucel (hydroxypropylcellulose) (HPC)",3 of 3 and 6 of 6
same,survivor count,"T/C endpoint: mean survival time, dose: 30.0 mg/kg/injection, schedule: Q01DX009 (ip), vehicle: saline",1 of 6
same,survivor count,"T/C endpoint: mean survival time, dose: 32.0 mg/kg/injection, schedule: Q01DX001 (sc), vehicle: saline",7 of 10
same,survivor count,"T/C endpoint: mean survival time, dose: 32.0 mg/kg/injection, schedule: Q01DX009 (ip), vehicle: saline",4 of 10
same,survivor count,"T/C endpoint: mean survival time, dose: 32.0 mg/kg/injection, schedule: Q01DX Z (ip), vehicle: carboxymethylcellulose (CMC)",5 of 6
same,survivor count,"T/C endpoint: mean survival time, dose: 32.0 mg/kg/injection, schedule: Q04DX003 (ip), vehicle: saline",7 of 10
same,survivor count,"T/C endpoint: mean survival time, dose: 32.0 mg/kg/injection, schedule: Q08DX002 (ip), vehicle: saline",9 of 10
same,survivor count,"T/C endpoint: mean survival time, dose: 50.0 mg/kg/injection, schedule: Q01DX001 (ip), vehicle: carboxymethylcellulose (CMC)",2 of 6
same,survivor count,"T/C endpoint: mean survival time, dose: 50.0 mg/kg/injection, schedule: Q01DX Z (ip), vehicle: carboxymethylcellulose (CMC)",2 of 10 and 3 of 10
same,survivor count,"T/C endpoint: mean survival time, dose: 64.0 mg/kg/injection, schedule: Q01DX001 (ip), vehicle: saline",9 of 10
same,survivor count,"T/C endpoint: mean survival time, dose: 64.0 mg/kg/injection, schedule: Q01DX001 (oral), vehicle: saline",8 of 10
same,survivor count,"T/C endpoint: mean survival time, dose: 64.0 mg/kg/injection, schedule: Q01DX001 (sc), vehicle: saline",7 of 10
same,survivor count,"T/C endpoint: mean survival time, dose: 64.0 mg/kg/injection, schedule: Q01DX009 (ip), vehicle: saline",1 of 10
same,survivor count,"T/C endpoint: mean survival time, dose: 64.0 mg/kg/injection, schedule: Q08DX002 (ip), vehicle: saline",8 of 10
same,survivor count,"T/C endpoint: mean survival time, dose: 75.0 mg/kg/injection, schedule: Q01DX Z (ip), vehicle: carboxymethylcellulose (CMC)",0 of 10
same,survivor count,"T/C endpoint: mean survival time, dose: 100.0 mg/kg/injection, schedule: Q01DX001 (ip), vehicle: carboxymethylcellulose (CMC)",1 of 6
same,survivor count,"T/C endpoint: mean survival time, dose: 128.0 mg/kg/injection, schedule: Q01DX009 (ip), vehicle: saline",0 of 10
same,survivor count,"T/C endpoint: mean survival time, dose: 200.0 mg/kg/injection, schedule: Q01DX001 (ip), vehicle: carboxymethylcellulose (CMC)",0 of 6
same,survivor count,"T/C endpoint: mean survival time, dose: 256.0 mg/kg/injection, schedule: Q01DX009 (ip), vehicle: saline",0 of 10
same,survivor count,"T/C endpoint: mean survival time, dose: 400.0 mg/kg/injection, schedule: Q01DX001 (ip), vehicle: carboxymethylcellulose (CMC)",0 of 6
same,T/C,"T/C endpoint: median survival time, dose: 0.5 mg/kg/injection, schedule: Q01DX009 (ip), vehicle: saline, evaluated on day 5","130, 131, 134 % of control"
same,T/C,"T/C endpoint: median survival time, dose: 0.5 mg/kg/injection, schedule: Q01DX009 (ip), vehicle: saline, evaluated on day 24",130 % of control
same,T/C,"T/C endpoint: median survival time, dose: 0.5 mg/kg/injection, schedule: Q01DX009 (ip), vehicle: saline, evaluated on day 33",131 and 134 % of control
same,T/C,"T/C endpoint: median survival time, dose: 1.0 mg/kg/injection, schedule: Q01DX009 (ip), vehicle: saline, evaluated on day 5","131, 137, 140, 142, 153 % of control"
same,T/C,"T/C endpoint: median survival time, dose: 1.0 mg/kg/injection, schedule: Q01DX009 (ip), vehicle: saline, evaluated on day 24",140 % of control
